# Laboratory results reported in PMC11326647, “In vitro reconstitution reveals membrane clustering and RNA recruitment by the enteroviral AAA+ ATPase 2C” (PLOS Pathogens, 2023).
# Results are given in words; binding and its absence hold for the method and conditions named. Some binding calls cover weakened binding; strength is not graded here.
# Target: apoferritin (UniProt P02791)
# Assay: mass photometry; proteins diluted to 100 nM in 50 mM Tris pH 7.4, on a glass coverslip, recorded 60 s; three repeats; both purified
binder,measurement,value
"apoferritin (complex, UniProt P02791 1-175) MSSQIRQNYSTEVEAAVNRLVNLYLRASYTYLSLGFYFDRDDVALEGVCHFFRELAEEKREGAERLLKMQNQRGGRALFQDLQKPSQDEWGTTLDAMKAAIVLEKSLNQALLDLHALGSAQADPHLCDFLESHFLDEEVKLIKKMGDHLTNIQRLVGSQAGLGEYLFERLTLKHD",binding,binds
